# The campaign covered roughly 350,000 compounds. About 220 (0.063%) were called active. The inconclusive results got no clear call from the source; some entries with a clear call stand among them for comparison. Calls follow the shape of the dose curve; as a rule, active = well fitted activation curve with a large enough effect; inconclusive = small, poorly fitted or top-dose-only effect; inactive = no such curve, though single readings can be large or run the other way. Potencies of inconclusive entries are doubtful fits and often do not repeat.
# Test: qHTS for Activators of Integrin-Mediated Alleviation for Muscular Dystrophy; also: nearly all actives have a fitted effect of over 60% in size;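 as to activation: 100% = response of the positive control SU9516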
# Conditions: alpha7betagal myoblasts, beta-gal FDG fluorescence, 48 h; activation: at 38.3 µM (top of the series)
# Procedure, shortened: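 Alpha7betagal+/- myoblasts (passage 13) were plated 16-24 hr, then exposed to compounds (1:260 dilution of DMSO stock) for 48 hours at 37C. After MPER lysis, β-galactosidase reporter activity was read as FDG fluorescence (ex 480/em 540) after 30 minutes.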
# Potency is read from the fitted curve at half-maximal effect.
SMILES,Potency,activation
Cc1ccc(C)c(N2CCN(C(=O)c3csc(C)c3C)CC2)c1,"inconclusive: 3.55 µM [activator, single point]",
Cc1ccc(-n2c(=O)c3cc4c(=O)n(-c5ccc(C)c(C)c5)c(=O)c4c(C(=O)c4ccc(C(=O)O)cc4)c3c2=O)cc1C,"inconclusive: 28.2 µM [activator, single point]",
Cc1cccc(NC(=O)COC(=O)Cc2cccc(C(F)(F)F)c2)c1C,"inconclusive: 5.01 µM [activator, single point]",
O=C(CCN1C(=O)c2ccccc2S1(=O)=O)NCc1ccco1,inactive,
O=C(CCC(=O)N(CC(=O)NC1CCCCC1)c1ccccc1F)Nc1nccs1,"inconclusive: 3.16 µM [activator, single point]",
Cc1ccc2c(c1)N=C(c1ccccc1)CC(C(Cl)Cl)=N2,inactive,
CC(=O)C1=C(O)C(=O)N(c2ccccn2)C1c1ccc(C)cc1 (stereo unspecified),"inconclusive: 5.01 µM [activator, full curve]",
Cc1ccc(C(=O)OCC(=O)c2ccc(CC(=O)N3CCOCC3)s2)c(C)c1,inactive,
COc1cccc(N2CCN(S(=O)(=O)c3cn(C)cn3)CC2)c1,"inconclusive: 5.01 µM [activator, single point]",
COC(=O)c1cc(CNC(=O)C2CC(=O)N(c3ccc4c(c3)OCCO4)C2)ccc1OC (stereo unspecified),inactive,
O=C(NCCCN1CCOCC1)c1cc2c(=O)[nH]c3ccccc3c2s1,inactive,
COC(=O)C1=NN(C(=O)c2ccccc2)C(O)(c2ccc([N+](=O)[O-])cc2)C1 (stereo unspecified),"inconclusive: 10 µM [activator, single point]",
CC(C)Sc1nc2ccccc2n1CC(=O)NCc1ccc2c(c1)OCO2,inactive,
O=C(NCc1nc2ccccc2[nH]1)C1=C[C@H](c2coc3ccccc3c2=O)C[C@H](OCc2ccc(CO)cc2)O1,"inconclusive: 2.82 µM [activator, partial curve, poor fit]",
O=C(CN1C(=O)NC(c2ccccc2)(c2ccccc2)C1=O)NCc1ccco1,inactive,
Cc1ccccc1NC(=O)Cc1nc(COC(=O)C(C)C)cs1,"inconclusive: 11.2 µM [activator, single point]",
N#CC(c1ccccn1)c1ncc(C(F)(F)F)cc1Cl (stereo unspecified),"inconclusive: 5.01 µM [activator, single point]",
Cc1cccc(OCc2occc2C(=O)Nc2cccc(-n3cnnn3)c2)c1,"inconclusive: 1 µM [activator, single point]",
O=C(NC(=S)Nc1cc([N+](=O)[O-])ccc1O)C1CC1,"inconclusive: 0.891 µM [activator, full curve, poor fit]",
CC(C)(C)NC(=O)NCc1cccnc1,"inconclusive: 28.2 µM [activator, single point]",
O=C(Nc1cccc(F)c1)C1CCN(c2nnnn2-c2ccccc2)CC1,"inconclusive: 22.4 µM [activator, single point]",
Cc1ccc(Nc2nc(N)nc(CCl)n2)c(C)c1,"inconclusive: 28.2 µM [activator, single point]",
CSCCC(NC(=O)COc1cccc2ccccc12)C(=O)O (stereo unspecified),"inconclusive: 1.12 µM [activator, single point]",
COc1ccc(OCC2CCCN(Cc3nc(CC4CC4)no3)C2)cc1 (stereo unspecified),"inconclusive: 2.82 µM [activator, single point]",

SMILES,Potency,activation
Fc1ccc(C2Nc3cccc4cccc(c34)N2)cc1,inactive,
CC1CCCC(NC(=O)c2ccc3c(c2)OCO3)C1C (stereo unspecified),inactive,
Cc1ccc(S(=O)(=O)N2CCN(C(=O)c3cc4c(s3)CCCC4)CC2)cc1,"inconclusive: 2.82 µM [activator, single point]",
COC(=O)c1cc(C(=O)c2ccc(Cl)cc2)n2c(=O)/c(=C\N(C)C)sc12,"inconclusive: 11.2 µM [activator, single point]",
Fc1c(F)c(F)c(N/N=C/c2c[nH]c3ccccc23)c(F)c1F,inactive,
O=C(Nc1nc2n(n1)C(c1ccc(F)cc1)CC(c1ccccc1)N2)c1ccco1 (stereo unspecified),"inconclusive: 3.98 µM [activator, full curve]",
CCCCn1nnnc1SCC(=O)NNC(=O)c1ccco1,"inconclusive: 5.01 µM [activator, single point]",
COc1ccc(NC(=O)N2CCCc3ccccc32)c(OC)c1,,inconclusive: -4.72% [activator]
CCCS(=O)(=O)c1nc(S(=O)(=O)c2ccc(C)cc2)c(N2CCCC2)s1,"inconclusive: 12.6 µM [activator, partial curve, poor fit]",
CC1(C)Cc2nc(Cl)c(C(N)=O)cc2CO1,"inconclusive: 1.41 µM [activator, partial curve, poor fit]",
CCOc1cc(/C=C/C(=O)c2ccc(C)cc2)ccc1OCC(=O)N(C)C,inactive,
O=C(COC(=O)c1ccc(CO)cc1)c1ccc(S(=O)(=O)N2CCCCC2)cc1,"inconclusive: 0.891 µM [activator, single point]",
Cc1cccc(NC(=S)NCCc2ccccc2)c1C,inactive,
COc1cc(OC)cc(C(=O)Nc2nc3ccccc3[nH]2)c1,"inconclusive: 2.82 µM [activator, single point]",
O=C(/C=C/c1ccco1)NCC(=O)N/N=C/c1ccc([N+](=O)[O-])cc1,inactive,
COCCNC(=O)C1Cc2c(ccc3ccccc23)O1 (stereo unspecified),"inconclusive: 17.8 µM [activator, single point]",
Cn1c(=O)c2c(nc(SCC(=O)NCC3CCCO3)n2Cc2ccc(F)cc2)n(C)c1=O (stereo unspecified),"inconclusive: 28.2 µM [activator, single point]",
COc1ccc(CN2C(=O)C(C)Oc3ccccc32)cc1 (stereo unspecified),"inconclusive: 28.2 µM [activator, single point]",
CCN(CC)C(=O)c1ccc(-c2nnc(Nc3ccc(C(=O)N(C)C)cc3)c3ccccc23)cc1,"inconclusive: 28.2 µM [activator, single point]",
Oc1ccc(CCC2CCCCN2Cc2nc(C3CC3)no2)cc1 (stereo unspecified),"inconclusive: 3.98 µM [activator, full curve]",
Cn1c(-c2ccccc2O)cc2ccccc21,inactive,
Cn1c(C2=C(O)CN(Cc3ccccc3)C2=N)nc2ccccc21,"inconclusive: 28.2 µM [activator, single point]",
O=C(NCc1cn(-c2ccccc2)nc1-c1ccccc1)c1ccc([N+](=O)[O-])cc1,inactive,
Cc1[nH]n(-c2ccccc2)c(=O)c1/C=N/N(c1ccccc1)c1ccccc1,inactive,

SMILES,Potency,activation
COCCNC(=O)[C@@]1(Cc2ccccc2)C=C[C@@H](C)N1C(C)=O,"inconclusive: 0.355 µM [activator, full curve, poor fit]",
Cc1cc(Cl)ccc1OCCCC(=O)Nc1ccc(S(=O)(=O)Nc2ncccn2)cc1,"inconclusive: 14.1 µM [activator, single point]",
Cc1ncsc1CCOC(=O)c1ccc(Cl)cc1,"inconclusive: 4.47 µM [activator, single point]",
CC1Cc2ccccc2N1CC(=O)Nc1ccc(S(N)(=O)=O)cc1 (stereo unspecified),"inconclusive: 2 µM [activator, partial curve, poor fit]",
CCOC(=O)N1CCN(C(=O)CN2C(=O)COc3ccc(S(=O)(=O)N4CCOCC4)cc32)CC1,"inconclusive: 3.16 µM [activator, single point]",
N/C(=N\NC(=O)c1ccc(F)cc1)c1cc2ccccc2oc1=O,inactive,
C=CCSc1nc2sc3c(c2c(=O)n1CC)CCC3,"inconclusive: 5.01 µM [activator, single point]",
N#CC(=C(O)COC(=O)c1ccc2c(c1)OCCO2)c1nc2ccccc2[nH]1,"inconclusive: 11.2 µM [activator, partial curve, poor fit]",
CCOC(=O)c1ccc(/[N+]([O-])=C/c2ccccc2)cc1,inactive,
CCN1CCN(c2nc(Nc3ccccc3F)nc(N)c2[N+](=O)[O-])CC1,inactive,
NNc1nc(-c2ccccc2)cc(-c2ccc(Br)cc2)n1,"inconclusive: 3.16 µM [activator, single point]",
NC(=O)CC[C@H](NC(=O)OCc1ccccc1)C(=O)OCc1ccc(Cl)cc1,inactive,
Cc1cccc(NC(=O)CC(=O)Nc2cccc(C)c2)c1,"inconclusive: 2.51 µM [activator, full curve, poor fit]",
CC(C)Nc1oc(-c2cccc3ccccc23)nc1C#N,inactive,
C=C(C)C1CC=C(C)/C(=N/NC(=O)C2CC2c2ccccc2)C1 (stereo unspecified),"inconclusive: 28.2 µM [activator, single point]",
Cc1ccc2nc3n(c(=O)c2c1)-c1ncccc1C(=O)NC3Cc1ccccc1 (stereo unspecified),inactive,
Cc1cc(C)c2[nH]c(C)c(CN3CCCCCC3)c(=O)c2c1,"inconclusive: 3.98 µM [activator, single point]",
COC(=O)c1nc(NC(=O)c2ccc(Br)cc2)n[nH]1,inactive,
C/C(=N\NC(=O)c1ccn(C)n1)c1ccc(NC(=O)C2CCC2)cc1,"inconclusive: 5.01 µM [activator, single point]",
OCC1(CO)CCCC(CO)(CO)C1O,"inconclusive: 28.2 µM [activator, partial curve, poor fit]",
C=C[C@@H]1c2c(F)cccc2N(S(=O)(=O)c2ccc(C)cc2)[C@H](c2ccc(OC(C)=O)cc2)C1(C#N)C#N,inactive,
CCCCC(=O)N(CCOC)c1nnc(-c2ccccc2C)s1,"inconclusive: 5.01 µM [activator, single point]",
COc1ccccc1C(=O)NCC(=O)NCc1cc(=O)n(C)c(=O)n1C,"inconclusive: 28.2 µM [activator, single point]",

# An excerpt from the list above:
SMILES,Potency,activation
Cc1ccc(C)c(N2CCN(C(=O)c3csc(C)c3C)CC2)c1,"inconclusive: 3.55 µM [activator, single point]",
Cc1ccc(-n2c(=O)c3cc4c(=O)n(-c5ccc(C)c(C)c5)c(=O)c4c(C(=O)c4ccc(C(=O)O)cc4)c3c2=O)cc1C,"inconclusive: 28.2 µM [activator, single point]",
Cc1cccc(NC(=O)COC(=O)Cc2cccc(C(F)(F)F)c2)c1C,"inconclusive: 5.01 µM [activator, single point]",
O=C(CCN1C(=O)c2ccccc2S1(=O)=O)NCc1ccco1,inactive,
O=C(CCC(=O)N(CC(=O)NC1CCCCC1)c1ccccc1F)Nc1nccs1,"inconclusive: 3.16 µM [activator, single point]",

# From PubChem BioAssay AID624291 (National Center for Advancing Translational Sciences (NCATS), 2012)
